Laboratory results reported in patent US20240009211A1, “PHARMACEUTICAL COMPOSITION FOR TREATMENT OF LUNG CANCER COMPRISING CANNABIDIOL AND ANTICANCER AGENT AS ACTIVE INGREDIENTS, AND USE THEREOF” (NEOCANNBIO CO., LTD., priority 2022, published 2024).

System: A549 cells
Test: Anti-cancer agents with or without CBD, WST-8 cell survival
Format: cell-based
Conditions: Homo sapiens; A549, 48 h, with CBD (15 μM)
Method: After completion of culture, 1/10 of WST-8 solution (Quanti-Max™, BIOMAX, Korea) was added to the medium, and after additional culture at 37° C. for 1 hour, the cell survival rate was determined by measuring absorbance at 450 nm, and expressed as a percentage of the control without any treatment. The experiment was conducted independently and repeated three times.

## CC/C(=C(\c1ccccc1)c1ccc(OCCN(C)C)cc1)c1ccccc1 [Tamoxifen]
  IC50: 16.7 µM
